# Laboratory results reported in PubChem BioAssay (Tox21).
# Sequences of proteins named here, by UniProt entry; tags and fusion partners are left off. A change or cut given only in a name is not applied to a line headed by its entry.
# UniProt P28223, whole entry, looked up: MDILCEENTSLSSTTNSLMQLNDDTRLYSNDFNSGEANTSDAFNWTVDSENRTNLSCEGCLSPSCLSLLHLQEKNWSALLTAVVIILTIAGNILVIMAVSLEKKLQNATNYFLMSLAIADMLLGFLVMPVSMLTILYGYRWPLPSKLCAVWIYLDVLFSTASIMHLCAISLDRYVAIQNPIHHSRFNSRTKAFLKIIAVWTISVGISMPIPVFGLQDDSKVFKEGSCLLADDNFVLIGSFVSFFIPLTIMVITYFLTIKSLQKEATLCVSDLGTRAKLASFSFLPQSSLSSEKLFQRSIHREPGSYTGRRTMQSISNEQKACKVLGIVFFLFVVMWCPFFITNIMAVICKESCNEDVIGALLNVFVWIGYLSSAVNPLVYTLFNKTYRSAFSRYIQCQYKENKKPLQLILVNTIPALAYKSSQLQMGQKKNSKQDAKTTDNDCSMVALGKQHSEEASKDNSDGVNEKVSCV
# UniProt P14416, whole entry, looked up: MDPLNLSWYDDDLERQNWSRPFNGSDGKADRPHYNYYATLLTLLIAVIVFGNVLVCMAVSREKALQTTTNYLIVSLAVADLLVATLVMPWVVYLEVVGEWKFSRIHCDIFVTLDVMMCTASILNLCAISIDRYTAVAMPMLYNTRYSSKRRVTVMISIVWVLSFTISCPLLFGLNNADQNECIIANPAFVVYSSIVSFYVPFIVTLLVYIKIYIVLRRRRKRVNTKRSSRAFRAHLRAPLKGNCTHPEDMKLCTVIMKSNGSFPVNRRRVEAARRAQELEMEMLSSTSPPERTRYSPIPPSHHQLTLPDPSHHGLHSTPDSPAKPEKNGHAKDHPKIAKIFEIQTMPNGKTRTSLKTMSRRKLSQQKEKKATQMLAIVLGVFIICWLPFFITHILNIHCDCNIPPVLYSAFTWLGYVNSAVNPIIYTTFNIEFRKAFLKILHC
# UniProt P11229: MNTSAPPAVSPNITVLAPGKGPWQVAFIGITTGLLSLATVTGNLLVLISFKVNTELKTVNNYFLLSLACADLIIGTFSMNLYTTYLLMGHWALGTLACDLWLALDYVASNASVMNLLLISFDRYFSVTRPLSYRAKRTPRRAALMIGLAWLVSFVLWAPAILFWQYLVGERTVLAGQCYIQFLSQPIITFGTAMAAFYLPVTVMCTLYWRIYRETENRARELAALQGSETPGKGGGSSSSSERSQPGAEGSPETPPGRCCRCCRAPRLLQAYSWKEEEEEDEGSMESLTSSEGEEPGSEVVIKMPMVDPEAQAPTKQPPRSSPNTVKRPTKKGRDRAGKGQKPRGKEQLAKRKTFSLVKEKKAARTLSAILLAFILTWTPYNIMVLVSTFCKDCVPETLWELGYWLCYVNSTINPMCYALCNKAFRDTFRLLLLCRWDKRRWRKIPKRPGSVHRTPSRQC
# Values joined by “and” are separate entries in the source; they are usually repeats but may differ in a detail not shown here. Equal entries are not always repeated. Inconclusive means that the source gave no clear call. Such entries were picked first, then a sample of the others. For some assays here: Potencies of inconclusive entries are doubtful fits and often do not repeat. Active and inactive are the calls of the source. Unless noted, the call rests on the fitted dose curve.
# Tests used:
# [1] = p53 small molecule agonists, cell-based qHTS assay with human liver microsomes: qHTS cell viability counter screen (AID 1963579); further: nearly all actives have a fitted effect of over 45% in size; further: potency means the concentration at half of the fitted maximal effect
# Outline: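 Metabolically activated exposure: compounds, human liver microsomes and NADPH (0.5 mg/mL final apiece) were added to p53RE-bla cells seeded 5 h earlier, left 16 h at 37 C, and then assessed for viability by CellTiter-Glo luminescence.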
# [2] = p53 small molecule agonists, cell-based qHTS assay: qHTS cell viability counter screen (AID 1963581); further: nearly all actives have a fitted effect of over 45% in size; further: potency means the concentration at half of the fitted maximal effect
# Outline: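 HCT-116 p53RE-bla cells, 4,000/well, plated 5 h before compound pin transfer; 16 h at 37 C; bla substrate 2 h RT; then CellTiter-Glo, 30 min RT, luminescence.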
# [3] = target: 5-hydroxytryptamine receptor 2A (Homo sapiens) (UniProt P28223); test: 5-hydroxytryptamine receptor 2A (HTR2A) small molecule antagonists, cell-based qHTS assay (AID 1963586); further: potency means the concentration at half of the fitted maximal effect; nearly all actives have a fitted effect of over 45% in size
# Outline: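 Antagonist-mode intracellular calcium assay: DOI (4 nM) added after 5 min compound pre-incubation at room temperature to dye-loaded HTR2A-CHO cells. Fluorescence followed for 3 min, sampled every second.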
# [4] = target: Beta-2 adrenergic receptor (Homo sapiens) (UniProt P07550); test: Adrenergic beta2 receptor (ADRB2) small molecule agonists, cell-based qHTS assay (AID 1963593); settings: CHO-ADRB2 cells, cAMP HTRF, 30 min; further: potency means the concentration at half of the fitted maximal effect;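 on activation: CHO cells stably overexpressing human ADRB2; on the % scale 0 is the no-effect control and ±100 the full control effect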
# Outline: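 CHO cells stably over-expressing ADRB2 were plated overnight at 37C, then dosed with compounds plus a stimulation mix containing 100uM IBMX and 25uM Ro-20-1724 for 0.5hr at room temperature. cAMP was measured by HTRF competition, 1hr.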
# [5] = target: D(2) dopamine receptor (Homo sapiens) (UniProt P14416); test: Dopamine D2 receptor (DRD2) small molecule antagonists, cell-based qHTS assay (AID 1963595; active means well fitted inhibition curve with a large enough effect in the signal ratio in the repeat runs, with a control signal flat; inconclusive means weak or mixed curves, or effect the other way; the % refers to the signal ratio; further: potency means the concentration at half of the fitted maximal effect; on activity change, negative = inhibition: on the % scale 0 is the no-effect control and ±100 the full control effect); settings: HEK293-DRD2 cAMP HTRF antagonist mode; activity change, negative = inhibition: at 92.4 µM (top of the series) unless noted
# Outline: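 Cells were plated and grown for 24 h at 37 °C. Ro20-1724 (0.1 mM final) went in first, then compound for 10 min. NKH477 (200 nM) with quinpirole (12 nM) followed for 30 min at RT, then HTRF detection reagents for 1 h.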
# [6] = p53 small molecule agonists, cell-based qHTS assay (AID 1963582; active means well fitted activation curve with a large enough effect in the signal ratio in the repeat runs, not every such curve was filed as active; inconclusive means weak or mixed curves; the % refers to the signal ratio; further: potency means the concentration at half of the fitted maximal effect); settings: HCT-116 p53RE-bla reporter, beta-lactamase FRET ratio, 16 h; activation: at 66 µM (top of the series) unless noted
# Outline: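 Reporter line: p53RE-bla. Pre-incubation 5 h, 37 C, 5% CO2; compound (DMSO, pin tool) 16 h, 37 C; B/G FRET substrate 2 h RT; fluorescence intensity read.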
# [7] = target: Muscarinic acetylcholine receptor M1 (Homo sapiens) (UniProt P11229); test: Cholinergic receptor muscarinic 1 (CHRM1) small molecule antagonists, cell-based qHTS assay (AID 1963588); further: nearly all actives have a fitted effect of over 40% in size; further: potency means the concentration at half of the fitted maximal effect
# Outline: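 CHRM1-CHO calcium-flux assay, antagonist mode. Cells were seeded 18 h, dye-loaded 1 h at 37 C and given compound for 5 min at RT, then acetylcholine was added at 50nM. FDSS fluorescence was read 3 min; 15 concentrations, three runs.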
# [8] = target: Beta-2 adrenergic receptor (Homo sapiens) (UniProt P07550); test: Adrenergic beta2 receptor (ADRB2) small molecule antagonists, cell-based qHTS assay (AID 1963592); settings: CHO-ADRB2 cells, isoproterenol-stimulated cAMP HTRF ratio, 0.5 h; activity change, negative = inhibition: at 92.4 µM (top of the series) unless noted; further: nearly all actives have a fitted effect of over 50% in size; further: potency means the concentration at half of the fitted maximal effect; on activity change, negative = inhibition: on the % scale 0 is the no-effect control and ±100 the full control effect
# Outline: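 Cells (CHO, stable ADRB2 overexpression) incubated 18-20hr at 37C; compounds added from DMSO; agonist mix (1nM isoproterenol, 100uM IBMX, 25uM Ro-20-1724) added; 0.5hr RT; d2-cAMP and anti-cAMP-cryptate added; 1hr RT; 665/615 nm read.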
# [9] = target: 5-hydroxytryptamine receptor 2A (Homo sapiens) (UniProt P28223); test: 5-hydroxytryptamine receptor 2A (HTR2A) small molecule agonists, cell-based qHTS assay (AID 1963587); further: on the % scale 0 is the no-effect control and ±100 the full control effect; nearly all actives have a fitted effect of over 30% in size
# Outline: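 HTR2A-CHO cells, plated 18 h at 37 C/5% CO2, dye-loaded 1 h at 37 C; compounds in DMSO added by pin tool (agonist mode). Intracellular calcium flux read as kinetic fluorescence on FDSS over 2 min at 1 s intervals.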
# [10] = cAMP Responsive Elements (CRE) small molecule agonists, cell-based qHTS assay (AID 1963590); settings: CRE-bla HEK293T, beta-lactamase FRET ratio, 3 h; activation: at 92.4 µM (top of the series) unless noted; further: potency means the concentration at half of the fitted maximal effect
# Outline: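 HEK 293T CRE-bla, 2,000 cells/well, 18 h preincubation 37 C/5% CO2; cpds (DMSO) pinned, 3 h; LiveBLAzer B/G FRET substrate, 2 h RT.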
# [11] = cAMP Responsive Elements (CRE) small molecule antagonists, cell-based qHTS assay (AID 1963591; active means well fitted inhibition curve with a large enough effect in the signal ratio in the repeat runs, not every such curve was filed as active; inconclusive means weak or mixed curves, or effect the other way; the % refers to the signal ratio; further: potency means the concentration at half of the fitted maximal effect; on activity change, negative = inhibition: on the % scale 0 is the no-effect control and ±100 the full control effect); settings: CRE-bla HEK293T, beta-lactamase FRET ratio; activity change, negative = inhibition: at 92.4 µM (top of the series) unless noted
# Outline: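 Beta-lactamase reporter read by FRET substrate (LiveBLAzer B/G) after 2 h at room temperature. CRE-bla HEK293T cells had received compound plus 0.25 uM (final) NKH477 for 3 h at 37 °C.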
# [12] = target: D(2) dopamine receptor (Homo sapiens) (UniProt P14416); test: Dopamine D2 receptor (DRD2) small molecule agonists, cell-based qHTS assay (AID 1963594); settings: HEK293-DRD2 cAMP HTRF, agonist mode, 30 min; activation: at 92.4 µM (top of the series) unless noted; further: nearly all actives have a fitted effect of over 35% in size; further: potency means the concentration at half of the fitted maximal effect
# Outline: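 HEK293 cells stably expressing DRD2 were cultured 24 h at 37 C, then given Ro20-1724 (0.1 mM final) and compounds for 10 min at room temperature. NKH477 (200nM) was then added for 30 min. cAMP was read by HTRF.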
# [13] = activation: at 92.4 µM (top of the series) unless noted
smiles,measurement,setting,value
COc1ccc(CCC(C)=O)cc1,Potency,[1],inactive
same,Potency,[2],inactive
same,Potency,[3],"inconclusive: 4.21 µM [inhibitor, single point]"
same,Potency,[4]; [13],inactive
same,Potency,[5],inactive
CCN(CCN)c1cccc(C)c1,Potency,[1],inactive
same,Potency,[6],"inconclusive: 51.8 µM [rising, single point]"
same,Potency,[3],"inconclusive: 535 nM [inhibitor, full curve] and active: 530 nM"
same,Potency,[7],"inconclusive: 26.5 µM [inhibitor, partial curve]"
same,Potency,[8],"active: 24.6 µM and inconclusive: 17.2 µM [inhibitor, full curve]"
same,Potency,[4]; [13],"inconclusive: 69.2 µM [inhibitor, partial curve, poor fit] and inconclusive: 27.3 µM [inhibitor, partial curve]"
CC(C)OC(=O)c1cc(C(=O)OC(C)C)cc([N+](=O)[O-])c1,Potency,[1],"inconclusive: 1.05 µM [rising, partial curve, poor fit]"
same,Potency,[2],"inconclusive: 37.2 µM [rising, partial curve]"
same,Potency,[9],inactive
same,Potency,[10],inconclusive: 24.9 µM [fluorescent]
same,Potency,[11],inconclusive: 17.6 µM [fluorescent]
same,Potency,[8],active: 62.6 µM
same,Potency,[4]; [13],"inconclusive: 2.22 µM [inhibitor, full curve, poor fit]"
Nc1ncn([C@@H]2O[C@H](CO)[C@@H](O)[C@H]2O)c(=O)n1,Potency,[1],"inconclusive: 12.6 µM [rising, partial curve, poor fit]"
same,Potency,[2],inactive
same,Potency,[11],"active: 40.3 µM and inconclusive: 18.8 µM [inhibitor, partial curve, poor fit]"
same,activation,[4]; at 42.5 µM (top of the series),inconclusive: -3.66%
same,activation,[4]; at 92.4 µM (top of the series),inconclusive: -22.4%
COc1cc2c(c(OC)c1OC)-c1ccc(OC)c(=O)cc1[C@@H](NC(C)=O)CC2,Potency,[1],"inconclusive: 50.7 nM [rising, full curve] and inconclusive: 28.9 nM [rising, full curve] and inconclusive: 19.9 nM [rising, full curve]"
same,Potency,[2],"inconclusive: 63.9 nM [rising, full curve] and inconclusive: 40.8 nM [rising, full curve] and inconclusive: 31.6 nM [rising, full curve]"
same,"activity change, negative = inhibition",[11],inconclusive: 16.1%
same,Potency,[8],"inconclusive: 68.6 µM [falling, partial curve, poor fit]"
same,"activity change, negative = inhibition",[8],inconclusive: 4.1%
same,activation,[4]; [13],inconclusive: 2.89% and inconclusive: 1.6%
same,activation,[4]; at 42.5 µM (top of the series),inactive: 6.09%
same,Potency,[5],inconclusive: 67.8 µM [cytotoxic]
O=C(O)c1ccc2c(c1)C(=O)OC2=O,Potency,[1],inactive
same,Potency,[2],inactive
same,Potency,[4]; [13],inactive
CC(=O)c1cc2ccccc2s1,Potency,[1],inactive
same,Potency,[2],inactive
same,Potency,[7],inactive
same,Potency,[11],inactive
same,Potency,[4]; [13],inactive
same,activation,[12],inconclusive: -0.216% [at 42.5 µM]
C=CCN1CCc2nc(N)sc2CC1,Potency,[1],"inconclusive: 2.51 µM [rising, partial curve, poor fit]"
same,Potency,[2],"inconclusive: 7.93 µM [cytotoxic, single point]"
same,Potency,[3],active: 4.1 µM
same,Potency,[4]; [13],inactive
Nc1ccc(Oc2ccc(Cl)cc2)cc1,Potency,[1],inactive
same,Potency,[2],inactive
same,Potency,[4]; [13],"inconclusive: 0.238 µM [inhibitor, partial curve, poor fit]"
CCC/C=C/C=O,Potency,[1],inactive
same,Potency,[2],"inconclusive: 9.13 µM [cytotoxic, single point]"
same,Potency,[4]; [13],inactive
same,"activity change, negative = inhibition",[5],inconclusive: -5.45%
CCCSc1ccc2nc(NC(=O)OC)[nH]c2c1,Potency,[1],"inconclusive: 1.99 µM [rising, full curve]"
same,Potency,[2],"inconclusive: 324 nM [rising, full curve] and inconclusive: 707 nM [rising, full curve]"
same,Potency,[10],"inconclusive: 7.7 µM [rising, full curve] and inconclusive: 8.41 µM [rising, full curve]"
same,activation,[4]; [13],inconclusive: 23.3%
same,activation,[4]; at 42.5 µM (top of the series),inactive: 8.32%
same,Potency,[12],"inconclusive: 33.5 µM [rising, single point]"
COC(=O)CC#N,Potency,[1],inactive
same,Potency,[2],inactive
same,Potency,[10],inactive
same,Potency,[11],inactive
same,activation,[4]; [13],inconclusive: -2.9%
COc1ccc(CN(CCN(C)C)c2ncccn2)cc1,Potency,[1],"inconclusive: 17.8 µM [rising, partial curve]"
same,Potency,[2],"inconclusive: 7.07 µM [rising, partial curve]"
same,activation,[4]; [13],inconclusive: 18.1% [at 42.5 µM]

# Retrieved one by one from the entries so far:
smiles,measurement,setting,value
COC(=O)CC#N,Potency,[11],inactive
COc1ccc(CCC(C)=O)cc1,Potency,[5],inactive
